Assay results taken from patent US20150198603A1 (TORAY INDUSTRIES, published 2015).
Results are given in words; binding and its absence hold for the method and conditions named. Binding calls can cover weak binding; strength is not graded here.

Molecular target: cat CAPRIN-1 in cat breast cancer tissues (cat)
Experiment: immunohistochemical staining of frozen cat breast cancer tissue sections, 10 µg/mL antibody

B1: mouse anti-human CAPRIN-1 monoclonal antibody #14 (antibody, V domains shown)
VH: GAELVKPGASVKLSCTASGLNIRDIYMHWVKQRPEQGLEWIGKIDPANGNTKYDPKFQGKATITADTSSNTAYVQLSSLTSEDTAVYYCAGTGDYWGQGTTVTVSS
VL: GTCGDIVMSQSPSSLAVSAGEKVTMSCKSSQSLLNSRTRKNYLAWVQHKPGQSPRLLIYWASTRESGVPDRFTGSGSGTDFTLTISSVQAEDLAVYYCRQSYNLVTFGAGPS
binding: binds
